Test results from the supplement of paper PMC10849652.
Some of the results follow. Residues, ends and D or L forms follow the SMILES beside them. *: point of attachment. Cbz = O=C(OCc1ccccc1)*

By UniProt entry, the sequences of proteins in these tests, tags left out. Where a name states a change or a piece, a line headed by the entry shows the natural chain unless it says otherwise.
UniProt Q9BWH6: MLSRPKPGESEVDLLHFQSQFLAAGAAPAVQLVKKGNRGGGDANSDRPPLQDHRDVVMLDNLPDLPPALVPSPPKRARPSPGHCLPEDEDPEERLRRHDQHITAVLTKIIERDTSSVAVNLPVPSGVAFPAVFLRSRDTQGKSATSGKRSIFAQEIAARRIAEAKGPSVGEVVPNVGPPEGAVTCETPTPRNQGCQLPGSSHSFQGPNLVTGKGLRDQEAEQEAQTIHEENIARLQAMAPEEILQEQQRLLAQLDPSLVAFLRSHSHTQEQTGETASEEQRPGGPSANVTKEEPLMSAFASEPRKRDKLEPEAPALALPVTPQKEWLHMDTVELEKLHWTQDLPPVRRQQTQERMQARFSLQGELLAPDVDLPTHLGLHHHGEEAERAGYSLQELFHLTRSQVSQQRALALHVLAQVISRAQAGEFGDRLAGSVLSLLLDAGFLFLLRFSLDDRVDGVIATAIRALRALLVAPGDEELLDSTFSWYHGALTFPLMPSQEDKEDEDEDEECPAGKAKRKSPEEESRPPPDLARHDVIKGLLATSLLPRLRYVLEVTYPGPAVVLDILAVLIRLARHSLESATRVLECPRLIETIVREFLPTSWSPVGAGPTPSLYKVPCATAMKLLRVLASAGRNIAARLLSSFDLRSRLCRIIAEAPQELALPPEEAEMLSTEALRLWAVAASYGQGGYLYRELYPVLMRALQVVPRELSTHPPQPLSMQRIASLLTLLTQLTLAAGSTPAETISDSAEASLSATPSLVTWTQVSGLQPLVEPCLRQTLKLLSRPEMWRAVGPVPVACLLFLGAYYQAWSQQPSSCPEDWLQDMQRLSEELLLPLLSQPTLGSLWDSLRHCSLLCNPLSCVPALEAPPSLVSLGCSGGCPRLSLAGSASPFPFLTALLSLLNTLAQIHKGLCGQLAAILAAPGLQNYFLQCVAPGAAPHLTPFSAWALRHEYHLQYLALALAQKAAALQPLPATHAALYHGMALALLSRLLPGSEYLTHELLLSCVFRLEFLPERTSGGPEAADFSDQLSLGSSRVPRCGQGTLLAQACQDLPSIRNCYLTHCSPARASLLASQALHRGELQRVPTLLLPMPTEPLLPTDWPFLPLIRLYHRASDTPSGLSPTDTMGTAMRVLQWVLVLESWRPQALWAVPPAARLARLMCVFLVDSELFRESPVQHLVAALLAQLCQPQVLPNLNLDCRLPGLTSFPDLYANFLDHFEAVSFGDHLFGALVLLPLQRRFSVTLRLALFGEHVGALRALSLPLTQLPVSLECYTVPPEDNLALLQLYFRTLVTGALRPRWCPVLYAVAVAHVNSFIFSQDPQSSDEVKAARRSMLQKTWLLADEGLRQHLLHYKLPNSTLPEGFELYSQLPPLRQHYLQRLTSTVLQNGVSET
UniProt Q9H633: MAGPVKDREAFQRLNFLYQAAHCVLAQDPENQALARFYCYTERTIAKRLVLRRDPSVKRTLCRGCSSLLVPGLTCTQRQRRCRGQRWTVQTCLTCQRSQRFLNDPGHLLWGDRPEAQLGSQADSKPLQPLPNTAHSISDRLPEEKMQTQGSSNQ
UniProt P05386, whole entry, looked up: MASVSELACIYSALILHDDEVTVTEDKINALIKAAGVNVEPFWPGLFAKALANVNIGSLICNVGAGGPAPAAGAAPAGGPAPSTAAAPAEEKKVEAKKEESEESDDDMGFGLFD
UniProt P31350, whole entry, looked up: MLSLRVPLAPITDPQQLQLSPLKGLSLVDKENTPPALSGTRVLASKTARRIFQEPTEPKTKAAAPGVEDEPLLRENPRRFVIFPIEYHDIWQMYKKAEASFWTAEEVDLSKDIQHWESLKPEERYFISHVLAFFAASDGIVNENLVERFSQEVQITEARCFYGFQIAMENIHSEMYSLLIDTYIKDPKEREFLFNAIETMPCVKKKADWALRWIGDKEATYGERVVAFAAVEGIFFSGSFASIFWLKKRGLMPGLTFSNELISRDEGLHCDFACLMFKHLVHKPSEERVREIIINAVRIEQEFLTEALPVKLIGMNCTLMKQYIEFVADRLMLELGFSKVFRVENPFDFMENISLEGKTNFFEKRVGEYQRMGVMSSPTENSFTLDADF
UniProt O43148, whole entry, looked up: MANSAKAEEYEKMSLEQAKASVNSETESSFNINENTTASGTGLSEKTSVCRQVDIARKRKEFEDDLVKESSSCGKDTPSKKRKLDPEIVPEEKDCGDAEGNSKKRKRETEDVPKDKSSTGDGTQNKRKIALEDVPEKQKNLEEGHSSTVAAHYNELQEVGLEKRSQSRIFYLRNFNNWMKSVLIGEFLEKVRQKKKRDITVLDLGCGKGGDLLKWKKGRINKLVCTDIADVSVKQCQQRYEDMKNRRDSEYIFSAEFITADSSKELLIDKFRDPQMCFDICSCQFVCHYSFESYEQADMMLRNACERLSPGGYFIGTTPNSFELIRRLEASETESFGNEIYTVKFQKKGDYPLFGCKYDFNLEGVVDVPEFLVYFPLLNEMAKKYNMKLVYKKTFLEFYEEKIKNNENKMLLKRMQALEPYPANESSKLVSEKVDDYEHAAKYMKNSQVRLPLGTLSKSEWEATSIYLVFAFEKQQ
UniProt P13489: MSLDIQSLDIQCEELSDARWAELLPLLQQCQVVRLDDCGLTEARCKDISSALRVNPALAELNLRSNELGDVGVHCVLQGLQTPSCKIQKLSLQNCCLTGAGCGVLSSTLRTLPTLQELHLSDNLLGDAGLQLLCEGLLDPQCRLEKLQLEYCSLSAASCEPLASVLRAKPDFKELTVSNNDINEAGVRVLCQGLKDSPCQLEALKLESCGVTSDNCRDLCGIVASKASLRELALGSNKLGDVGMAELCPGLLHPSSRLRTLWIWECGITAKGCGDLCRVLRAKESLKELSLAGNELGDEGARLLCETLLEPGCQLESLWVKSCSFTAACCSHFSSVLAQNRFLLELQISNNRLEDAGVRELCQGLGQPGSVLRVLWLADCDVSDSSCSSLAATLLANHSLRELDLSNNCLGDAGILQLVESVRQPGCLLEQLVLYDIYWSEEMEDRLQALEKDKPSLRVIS

Tests used:
Experiment in all cases: log2 fold change, soluble protein after heating vs DMSO (PISA); higher = thermal stabilisation; K562 cells, 10 uM, 30 min; active = over 0.2 and 3.5 SD of the protein, either way, in both replicates (recomputed)
[1] = compound: C#Cc1cccc(Nc2ncnc3cc(OCCOC)c(OCCOC)cc23)c1 [erlotinib]
In short: (§1)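 K562 cells at 2×10^6 cells/mL were treated with 10 μM compound for 30 min. Aliquots were heated for 3 min across 48°C-58°C, pooled, and extracted in PBS with 0.5% NP-40 at 4°C; soluble protein was the supernatant after 21,000xg for 90 min. Soluble protein was quantified by TMTpro 16plex LC-MS/MS with channel sums equalised, and reported as log2 fold change in thermal stability against DMSO controls, with values from duplicates.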

[2] = compound: C/C(=N\NC(=O)C1=CC(=CC=C1)S(=O)(=O)N2CCOCC2)/C3=C(C=CC(=C3)Cl)O
In short: as §1

[3] = compound: C1=CC(=C(C=C1Cl)C2=NC3=NC=CN=C3C(=N2)NC4=CC=NC=C4)F
In short: as §1

[4] = compound: C1=CC(=CC=C1C2=NC3=C(N2)C=C(C=C3)C(=O)N)OC4=CC=C(C=C4)Cl
In short: as §1

[5] = compound: C1=CC2=C(C=CC(=C2)/C=C\3/C(=O)NC(=NCC4=CC=CS4)S3)N=C1
In short: as §1

[6] = compound: C1=CC2=NC=CN=C2C=C1/C=C/3\C(=O)NC(=O)S3
In short: as §1

[7] = compound: C1=CC=C(C=C1)C2=NC(=C(N2)C3=CC=NC=C3)C4=CC(=C(C=C4)Cl)O
In short: as §1

[8] = compound: C1=CC=C2C(=C1)C3=NNC4=CC=CC(=C43)C2=O
In short: as §1

[9] = compound: C1CCN(C1)C(=O)NC2=CC=CC(=C2)NC3=NC=C(C(=N3)NCCC4=CN=CN4)Br
In short: as §1

[10] = compound: C1CN(CCC1(CC2=CC=C(C=C2)Cl)N)C3=NC=NC4=C3C=CN4
In short: as §1

[11] = compound: C1COCCN1CCN2C3=CC=CC=C3N=C2NC(=O)C4=CC(=CC=C4)[N+](=O)[O-] [IRAK-1-4 Inhibitor I]
In short: as §1

[12] = compound: C=CC(=O)N1CCC[C@@H](n2nc(-c3ccc(Oc4ccccc4)cc3)c3c(N)ncnc32)C1 [ibrutinib]
In short: as §1

[13] = compound: CC(=O)c1cnc2ccc(-c3cc(Cl)c(O)c(Cl)c3)nc2c1N[C@H]1CC[C@H](CN(C)C)CC1
In short: as §1

[14] = compound: CC(C)(C)Cn1c(N)nc2ccc(-c3[nH]c(C(C)(C)C)nc3-c3ccc(F)cc3)nc21 [ralimetinib]
In short: as §1

[15] = compound: CC(C)(O)CC(=O)NCCn1ccc2ncnc(Nc3ccc(Oc4cccc(C(F)(F)F)c4)c(Cl)c3)c21
In short: as §1

[16] = compound: CC(C)C1=C2N=C(C=C(N2N=C1)NCC3=CC=CC=C3)NCCCCCCN
In short: as §1

[17] = compound: CC(C)C[C@@H](C=O)NC(=O)[C@H](CC(C)C)NC(=O)[C@H](CC(C)C)NC(=O)OCc1ccccc1
In short: as §1

[18] = compound: CC(C)N(C[C@H]1O[C@@H](n2cnc3c(N)ncnc32)[C@H](O)[C@@H]1O)[C@H]1C[C@@H](CCc2nc3cc(C(C)(C)C)ccc3[nH]2)C1 [pinometostat]
In short: as §1

[19] = compound: CC1=C(C(CC(=O)N1)C2=CC=C(C=C2)C(F)(F)F)C(=O)NC3=C(C=C4C(=C3)C=NN4)F
In short: as §1

[20] = compound: CC1=C(C2=C(C=C1)C(=O)C3=CC=CC=C3N2CCCN)C
In short: as §1

Measured: log2 fold change

RPL26L1 (UniProt Q9UNX3)
inactive: [1] -0.201 | [2] -0.178 | [3] -0.626 | [4] 0.023 | [5] -0.129 | [6] -0.059 | [7] -0.051 | [8] 0.053 | [9] 0.11 | [10] -0.241 | [11] -0.254 | [12] 0.019 | [13] 0.164 | [14] 0.167 | [15] 0 | [16] -0.029 | [17] 0.131 | [18] 0.245 | [19] -0.003 | [20] -0.488

RPS27 (UniProt P42677)
inactive: [1] -0.235 | [2] -0.049 | [3] -0.186 | [4] 0.182 | [5] 0.073 | [6] -0.042 | [7] -0.02 | [8] -0.053 | [9] 0.116 | [10] -0.229 | [11] -0.049 | [12] -0.021 | [13] 0.012 | [14] 0.037 | [15] -0.026 | [16] -0.505 | [17] 0.094 | [18] 0.168 | [19] -0.009 | [20] -0.142

RPAP1 (UniProt Q9BWH6)
inactive: [1] 0.024 | [2] 0.007 | [3] 0.035 | [4] 0.015 | [5] -0.007 | [6] 0.024 | [7] 0.025 | [8] 0.017 | [9] -0.023 | [10] 0.044 | [11] -0.002 | [12] 0.023 | [13] -0.067 | [14] 0.022 | [15] -0.054 | [16] -0.059 | [17] 0.019 | [18] 0.032 | [19] -0.022 | [20] -0.004

RPP21 isoform 4 (UniProt Q9H633)
inactive: [1] -0.063 | [2] 0.12 | [3] 0.035 | [4] -0.078 | [5] -0.054 | [6] -0.039 | [7] 0.09 | [8] 0.047 | [9] -0.02 | [10] -0.011 | [11] 0.027 | [12] -0.017 | [13] 0.002 | [14] 0.015 | [15] -0.074 | [16] -0.024 | [17] 0.075 | [18] 0.207 | [19] 0.03 | [20] -0.163

RPS29 (UniProt P62273)
inactive: [1] -0.034 | [2] -0.161 | [3] -0.011 | [4] 0.111 | [5] -0.178 | [6] -0.101 | [7] -0.059 | [8] 0.083 | [9] 0.135 | [10] -0.181 | [11] -0.116 | [12] 0.078 | [13] 0.191 | [14] 0.546 | [15] -0.008 | [16] 0.061 | [17] 0.578 | [18] 0.188 | [19] 0.367 | [20] -0.625

RPLP1 (UniProt P05386)
inactive: [1] -0.234 | [2] -0.335 | [3] -0.568 | [4] 0.114 | [5] -0.202 | [6] 0.076 | [7] -0.094 | [8] -0.083 | [9] 0.039 | [10] -0.392 | [11] -0.257 | [12] 0.042 | [13] 0.068 | [14] 0.065 | [15] 0 | [16] 0.073 | [17] 0.056 | [18] 0.323 | [19] 0.11 | [20] -0.67

RPS24 isoform 4 (UniProt P62847)
inactive: [1] -0.152 | [2] -0.138 | [3] -0.33 | [4] 0.043 | [5] -0.095 | [6] -0.021 | [7] -0.116 | [8] -0.018 | [9] 0.052 | [10] -0.138 | [11] -0.1 | [12] 0.053 | [13] 0.095 | [14] 0.128 | [15] 0.057 | [16] -0.011 | [17] 0.094 | [18] 0.255 | [19] 0.074 | [20] -0.538

RPS10 (UniProt P46783)
inactive: [1] -0.141 | [2] -0.13 | [3] -0.188 | [4] 0.009 | [5] -0.141 | [6] -0.017 | [7] -0.019 | [8] 0 | [9] 0.057 | [10] -0.098 | [11] -0.065 | [12] 0.043 | [13] 0.037 | [14] 0.05 | [15] 0.036 | [16] -0.03 | [17] 0.076 | [18] 0.097 | [19] 0.037 | [20] -0.41

RPS26 (UniProt P62854)
inactive: [1] -0.164 | [2] -0.314 | [3] -0.607 | [4] 0.089 | [5] -0.102 | [6] -0.054 | [7] 0.057 | [8] -0.083 | [9] 0.058 | [10] -0.336 | [11] -0.149 | [12] 0.112 | [13] 0.127 | [14] 0.26 | [15] 0 | [16] -0.02 | [17] 0.085 | [18] 0.336 | [19] 0.082 | [20] -0.875

RRM2 isoform 2 (UniProt P31350)
inactive: [1] -0.026 | [2] 0.014 | [3] 0.035 | [4] 0.013 | [5] -0.017 | [6] 0.02 | [7] 0.031 | [8] 0.038 | [9] -0.03 | [10] 0.014 | [11] 0.031 | [12] 0.011 | [13] 0.014 | [14] 0.013 | [15] -0.025 | [16] 0.02 | [17] -0.007 | [18] -0.04 | [19] 0.001 | [20] -0.048

Looked up one by one from the list above (2):
RPS26 (UniProt P62854)
inactive: [1] -0.164 | [2] -0.314 | [3] -0.607 | [4] 0.089 | [5] -0.102 | [6] -0.054 | [7] 0.057 | [8] -0.083 | [9] 0.058 | [10] -0.336 | [11] -0.149 | [12] 0.112 | [13] 0.127 | [14] 0.26 | [15] 0 | [16] -0.02 | [17] 0.085 | [18] 0.336 | [19] 0.082 | [20] -0.875

RPL26L1 (UniProt Q9UNX3)
inactive: [1] -0.201 | [2] -0.178 | [3] -0.626 | [4] 0.023 | [5] -0.129 | [6] -0.059 | [7] -0.051 | [8] 0.053 | [9] 0.11 | [10] -0.241 | [11] -0.254 | [12] 0.019 | [13] 0.164 | [14] 0.167 | [15] 0 | [16] -0.029 | [17] 0.131 | [18] 0.245 | [19] -0.003 | [20] -0.488

(listing goes on)

RPL26 (UniProt P61254)
inactive: [1] -0.286 | [2] -0.107 | [3] -0.765 | [4] 0.138 | [5] -0.293 | [6] -0.048 | [7] -0.287 | [8] 0.011 | [9] -0.156 | [10] -0.285 | [11] -0.23 | [12] 0.074 | [13] 0.284 | [14] 0.335 | [15] 0.006 | [16] 0.027 | [17] 1.12 | [18] 0.661 | [19] 0.075 | [20] -0.717

RPL13 (UniProt P26373)
inactive: [1] -0.4 | [2] -0.434 | [3] -1.02 | [4] 0.065 | [5] -0.229 | [6] -0.007 | [7] -0.18 | [8] -0.012 | [9] 0.143 | [10] -0.315 | [11] -0.208 | [12] 0.065 | [13] 0.232 | [14] 0.213 | [15] 0.102 | [16] 0.022 | [17] 0.229 | [18] 0.529 | [19] 0.117 | [20] -0.899

RPS23 (UniProt P62266)
inactive: [1] -0.343 | [2] -0.203 | [3] -0.573 | [4] 0.061 | [5] -0.083 | [6] -0.047 | [7] -0.062 | [8] 0.002 | [9] 0.093 | [10] -0.25 | [11] -0.198 | [12] 0.098 | [13] 0.235 | [14] 0.15 | [15] 0 | [16] 0.01 | [17] 0.089 | [18] 0.369 | [19] 0.049 | [20] -0.684

RPS11 (UniProt P62280)
inactive: [1] -0.204 | [2] -0.249 | [3] -0.586 | [4] 0.059 | [5] -0.18 | [6] -0.025 | [7] -0.034 | [8] -0.036 | [9] 0.073 | [10] -0.217 | [11] -0.138 | [12] 0.045 | [13] 0.142 | [14] 0.153 | [15] 0 | [16] -0.003 | [17] 0.069 | [18] 0.425 | [19] 0.053 | [20] -0.639

RNMT isoform 2 (UniProt O43148)
inactive: [1] -0.033 | [2] -0.093 | [3] -0.024 | [4] -0.007 | [5] 0.119 | [6] 0.022 | [7] -0.041 | [8] -0.029 | [9] 0.026 | [10] -0.047 | [11] -0.041 | [12] 0.019 | [13] 0.013 | [14] 0.042 | [15] 0.02 | [16] 0.048 | [17] 0.072 | [18] 0.042 | [19] 0.012 | [20] 0.122

RNH1 (UniProt P13489)
inactive: [1] -0.015 | [2] 0.072 | [3] 0.089 | [4] 0.002 | [5] 0.028 | [6] 0.051 | [7] 0.018 | [8] -0.009 | [9] -0.013 | [10] -0.003 | [11] 0.066 | [12] -0.013 | [13] 0.043 | [14] -0.003 | [15] -0.062 | [16] -0.119 | [17] -0.029 | [18] -0.022 | [19] 0.094 | [20] -0.01
